Assay [1] deals with T1, SEC23B peptide (a.a. 180-194) (human).
T1 sequence (peptide): CEGISKSYVFRGTKD
The assay is described as follows: pull-down; peptides conjugated to beads, in vitro binding with FBXW5 in vitro transcribed/translated in rabbit reticulocyte system; bound FBXW5 detected by immunoblotting; only the target purified. Background: A western blot detects proteins with antibodies after separation by electrophoresis.

By UniProt entry, the sequences of proteins in these tests, tags left out.
UniProt Q969U6: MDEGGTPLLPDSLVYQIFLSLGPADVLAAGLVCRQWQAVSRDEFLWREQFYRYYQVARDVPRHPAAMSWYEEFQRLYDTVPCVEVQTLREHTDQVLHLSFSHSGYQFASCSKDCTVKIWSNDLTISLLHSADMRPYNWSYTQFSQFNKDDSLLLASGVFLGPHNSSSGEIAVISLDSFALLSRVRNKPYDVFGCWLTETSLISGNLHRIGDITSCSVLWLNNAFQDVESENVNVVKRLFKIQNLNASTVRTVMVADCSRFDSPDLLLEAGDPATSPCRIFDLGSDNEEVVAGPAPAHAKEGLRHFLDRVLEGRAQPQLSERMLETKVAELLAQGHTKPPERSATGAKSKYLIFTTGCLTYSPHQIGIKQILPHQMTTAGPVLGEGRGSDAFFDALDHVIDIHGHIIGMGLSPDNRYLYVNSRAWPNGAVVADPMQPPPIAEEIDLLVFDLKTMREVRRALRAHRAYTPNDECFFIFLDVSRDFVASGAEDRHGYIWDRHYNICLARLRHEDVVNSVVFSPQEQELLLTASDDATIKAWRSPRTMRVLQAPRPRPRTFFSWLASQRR
UniProt Q15436: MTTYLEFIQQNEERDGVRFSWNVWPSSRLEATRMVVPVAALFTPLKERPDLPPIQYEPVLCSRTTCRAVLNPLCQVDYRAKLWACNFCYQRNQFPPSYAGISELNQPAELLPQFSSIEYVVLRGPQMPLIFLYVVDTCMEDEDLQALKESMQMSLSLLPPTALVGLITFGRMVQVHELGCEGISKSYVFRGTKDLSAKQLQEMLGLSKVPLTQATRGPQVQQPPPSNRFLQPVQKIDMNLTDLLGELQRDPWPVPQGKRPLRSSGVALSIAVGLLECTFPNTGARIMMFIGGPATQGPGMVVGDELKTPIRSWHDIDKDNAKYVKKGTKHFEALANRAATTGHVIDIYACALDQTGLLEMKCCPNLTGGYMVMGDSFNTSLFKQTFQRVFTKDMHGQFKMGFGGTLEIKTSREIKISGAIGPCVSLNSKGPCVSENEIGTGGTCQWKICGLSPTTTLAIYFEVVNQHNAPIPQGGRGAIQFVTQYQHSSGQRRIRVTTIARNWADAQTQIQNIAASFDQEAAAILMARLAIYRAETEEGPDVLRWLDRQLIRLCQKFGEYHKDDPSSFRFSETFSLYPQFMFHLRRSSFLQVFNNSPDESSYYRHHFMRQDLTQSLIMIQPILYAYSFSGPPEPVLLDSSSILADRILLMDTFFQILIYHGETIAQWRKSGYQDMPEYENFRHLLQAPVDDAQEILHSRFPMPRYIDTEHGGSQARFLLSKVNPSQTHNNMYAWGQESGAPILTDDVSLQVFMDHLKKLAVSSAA

The target is the same in assay [2]. The assay is described as follows: pull-down; beads coupled to the SEC23B peptide (or unconjugated beads) incubated with whole cell extracts of HEK293T; washed with lysis buffer, eluted, immunoblotting; only the target purified.
The target of a further assay is SEC23B(100-767) (human) (UniProt Q15437). The assay is described as follows: co-IP; affinity purification of Streptag-tagged bait on Streptactin beads from transfected HEK293T extracts (50 mM Tris pH 7.4, 150 mM NaCl, 2 mM EDTA, 10% glycerol, 0.5% NP-40; 2 h at 4 C), immunoblotting; in some panels MLN4924 for 4 h, EBSS starvation or co-expressed ULK1.
The next assay deals with SEC23B(400-767) (human) (UniProt Q15437). The assay is described as above.
For assay [3], the target named is Streptag-FLAG-tagged SEC23B(S186A) (human) (UniProt Q15437). The assay is described as above.
Assay [4] deals with Streptag-FLAG-tagged SEC23B(S186D) (human) (UniProt Q15437). Described as above.
Assay [5] concerns the target FLAG-HA-tagged FBXW5 (human) (UniProt Q969U6). The assay is described as follows: co-IP; immunoprecipitation with FLAG (FLAG-M2) beads from transfected HEK293T extracts, immunoblotting; Figure 1F untreated or MLN4924 for 4 h.

Results are given in words; binding and its absence hold for the method and conditions named. In cells and extracts the contact can be indirect. Some entries that bind do so weakly or less than the wild type. For some of these results: Sequences can lack the tags named with a protein.

Take “FBXW5, in vitro transcribed/translated (from UniProt Q969U6 1-566)”: in assay [1], the binding entry is given as “binds”.
On to “endogenous FBXW5 (from UniProt Q969U6 1-566)”, for which the binding result in assay [2] is given as “binds”; with SEC23B(100-767) (human), “binds”; with SEC23B(400-767) (human), “no binding”; in assay [3] it was “binds”; in assay [4] it was “no binding”.
On to “endogenous SEC23A (from UniProt Q15436 1-765)”, for which the binding entry in assay [5] is “no binding”.

The values are drawn from article PMC6351106.
